Test [1] concerns the target T1, α1(I) chain of type I collagen (mouse, UniProt P11087 168-1181, limits assumed).
T1 construct: Denatured chain on a nitrocellulose filter; pepsin-treated collagen; also called α1 chain
The test can be described thus: electroblot assay, FIG. 5D.

Chains of the proteins cited; added tags and fusions are not shown. Lines headed by an entry give the natural chain unless they say otherwise; changes in a name come on top. Residues count along the entry.
UniProt P11087, residues 168-1181: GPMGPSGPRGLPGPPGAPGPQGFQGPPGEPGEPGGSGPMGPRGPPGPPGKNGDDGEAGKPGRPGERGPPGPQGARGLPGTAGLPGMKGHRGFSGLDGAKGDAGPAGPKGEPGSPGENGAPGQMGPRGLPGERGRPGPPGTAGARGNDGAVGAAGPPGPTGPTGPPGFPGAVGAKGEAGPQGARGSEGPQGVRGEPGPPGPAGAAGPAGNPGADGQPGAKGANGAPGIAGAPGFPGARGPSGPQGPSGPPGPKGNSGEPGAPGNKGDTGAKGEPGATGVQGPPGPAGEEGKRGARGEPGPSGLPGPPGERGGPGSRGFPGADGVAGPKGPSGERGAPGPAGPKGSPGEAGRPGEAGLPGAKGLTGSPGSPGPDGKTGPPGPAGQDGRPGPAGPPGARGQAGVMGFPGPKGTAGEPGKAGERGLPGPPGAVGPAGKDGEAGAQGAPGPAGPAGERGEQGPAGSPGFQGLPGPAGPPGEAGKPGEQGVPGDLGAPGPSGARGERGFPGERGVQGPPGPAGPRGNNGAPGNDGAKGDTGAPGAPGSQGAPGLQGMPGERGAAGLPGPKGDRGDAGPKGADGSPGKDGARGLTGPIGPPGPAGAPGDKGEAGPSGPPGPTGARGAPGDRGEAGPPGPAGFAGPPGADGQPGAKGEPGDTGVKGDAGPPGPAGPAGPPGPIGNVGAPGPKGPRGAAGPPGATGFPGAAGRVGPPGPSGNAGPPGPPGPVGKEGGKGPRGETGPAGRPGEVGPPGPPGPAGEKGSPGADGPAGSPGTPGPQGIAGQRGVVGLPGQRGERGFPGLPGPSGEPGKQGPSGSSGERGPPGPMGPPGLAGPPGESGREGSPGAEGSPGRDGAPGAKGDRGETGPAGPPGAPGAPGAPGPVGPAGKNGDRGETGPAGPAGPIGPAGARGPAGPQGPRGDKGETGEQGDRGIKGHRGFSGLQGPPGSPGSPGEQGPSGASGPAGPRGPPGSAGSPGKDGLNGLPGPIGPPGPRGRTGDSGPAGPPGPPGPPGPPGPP
UniProt P08123: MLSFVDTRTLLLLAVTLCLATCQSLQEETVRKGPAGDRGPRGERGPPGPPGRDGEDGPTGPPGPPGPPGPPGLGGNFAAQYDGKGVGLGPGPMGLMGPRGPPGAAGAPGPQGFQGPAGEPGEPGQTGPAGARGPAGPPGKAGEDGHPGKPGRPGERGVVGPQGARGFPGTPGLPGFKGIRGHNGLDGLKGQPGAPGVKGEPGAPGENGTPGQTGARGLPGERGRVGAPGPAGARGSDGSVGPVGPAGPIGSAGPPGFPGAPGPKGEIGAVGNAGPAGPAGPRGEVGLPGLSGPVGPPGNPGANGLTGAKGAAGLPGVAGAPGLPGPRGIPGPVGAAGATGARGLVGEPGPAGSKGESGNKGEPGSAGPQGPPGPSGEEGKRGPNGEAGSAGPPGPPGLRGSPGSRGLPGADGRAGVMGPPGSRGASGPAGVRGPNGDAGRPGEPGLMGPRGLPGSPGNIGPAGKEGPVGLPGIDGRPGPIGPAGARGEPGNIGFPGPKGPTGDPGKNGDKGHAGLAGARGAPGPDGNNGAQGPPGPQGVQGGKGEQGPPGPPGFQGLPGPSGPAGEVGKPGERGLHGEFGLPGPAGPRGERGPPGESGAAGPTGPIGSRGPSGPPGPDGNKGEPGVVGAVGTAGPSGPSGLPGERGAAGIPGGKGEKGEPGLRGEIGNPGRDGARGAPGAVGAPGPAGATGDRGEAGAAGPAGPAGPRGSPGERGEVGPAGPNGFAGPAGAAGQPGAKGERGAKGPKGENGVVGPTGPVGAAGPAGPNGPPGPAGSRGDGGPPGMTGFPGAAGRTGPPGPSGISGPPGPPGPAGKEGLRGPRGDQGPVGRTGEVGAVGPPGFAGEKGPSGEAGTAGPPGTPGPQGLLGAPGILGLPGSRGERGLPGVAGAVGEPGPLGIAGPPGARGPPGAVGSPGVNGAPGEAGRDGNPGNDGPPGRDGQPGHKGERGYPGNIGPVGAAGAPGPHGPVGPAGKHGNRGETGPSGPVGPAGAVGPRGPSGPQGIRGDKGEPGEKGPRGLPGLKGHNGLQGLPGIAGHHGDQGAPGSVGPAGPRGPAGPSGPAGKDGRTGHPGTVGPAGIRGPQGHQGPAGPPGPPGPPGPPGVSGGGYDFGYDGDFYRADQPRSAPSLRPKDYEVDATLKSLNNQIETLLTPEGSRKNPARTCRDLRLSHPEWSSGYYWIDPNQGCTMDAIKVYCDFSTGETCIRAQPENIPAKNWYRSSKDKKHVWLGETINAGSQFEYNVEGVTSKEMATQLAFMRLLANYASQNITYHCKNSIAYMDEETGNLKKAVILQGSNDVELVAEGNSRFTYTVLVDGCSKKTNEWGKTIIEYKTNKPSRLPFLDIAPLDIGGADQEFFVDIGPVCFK

The target in test [2] is T1, α1(I) chain of type I collagen. As to the kind of experiment: filter binding assay, electroblotted chains.

These are yes or no findings as the source states them, for the method shown. Some binding calls cover weakened binding; strength is not graded here. No end group written: not given here. *: point of attachment. Biotin = O=C1N[C@H]2[C@H](CS[C@H]2CCCCC(=O)*)N1

B1: biotinylated N-telopeptide of α2 chain of human type I collagen (peptide, UniProt P08123 80-90, looked up)
peptide: Biotin-QYDGKGVGLGP
notes: domain: N-telopeptide; also called biotinylated α2 N-telopeptide
As for B1, the binding result in test [1] and in test [2] was “binds” in each case.
